# From PubChem BioAssay AID445 (National Center for Advancing Translational Sciences (NCATS), 2006)
# “And” between values parts separate entries of the source, which are not always exact repeats. Equal values may be shown once. The list shows a part of the results. Shown are side measurements of this screen, not its main read-out; they come without a call. Most of these compounds were active or inconclusive in the main read-out, so they are no random draw. Potencies come from curve fits of mixed quality, noted in brackets.
# Test: IkB Signaling
# Details: ABC-DLBCL IkBa-CBG/CBR dual luciferase ratio (green luciferase fused to IkBa over red control in OCI-Ly3 lymphoma cells), 4 h
# Summary of the method: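 In this assay, an IκBα–CBG68 fusion accumulates when IKK-driven degradation is blocked; native CBR normalizes for cell number. OCI-Ly3 cells were treated 4 h with compound and doxycycline, then green and red light read after Chroma-Glo addition.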
# [1] = measured here: control luc red channel unless noted
# [2] = measured here: IkB-luc green channel
# [3] = measured here: control luc red channel
structure (smiles),measurement,setting,value
CCOc1ccc(NC(=O)c2cnn3c(C(F)F)cc(-c4ccc(C)cc4)nc23)cc1,AC50,[1],"25.1 µM [rising, partial curve, poor fit]"
CC(C)c1cc(C(=O)Nc2cccc(Cl)c2)no1,AC50,[1],"10 µM [falling, partial curve]"
CCc1ccc(Sc2cc(C(=O)NCCCN3CCCC(C)C3)c3ccccc3n2)cc1 (stereo not drawn),AC50,[1],"0.0631 µM [falling, full curve, poor fit]"
Cc1ccccc1CCNCc1c(C(=O)O)c(C)n(Cc2c(F)cccc2Cl)c1C,AC50,[1],"15.8 µM [falling, partial curve]"
Cc1ccc(-n2ncc(C(=O)N3CCN(C4CCCCC4)CC3)c2C2CCN(C(=O)OC(C)(C)C)CC2)cc1,AC50,[1],"39.8 µM [falling, single point]"
COc1cccc(OCCn2cc(C(=O)c3ccco3)c3ccccc32)c1,AC50,[1],"0.0501 µM [falling, full curve]"
CCCCCCNc1ncnc2c1sc1nc(N3CCOCC3)c3c(c12)CCCC3,AC50,[1],"1 µM [rising, full curve, poor fit]"
CCCCSCCCNC(=O)c1cc(-c2cccnc2)nc2ccc(S(=O)(=O)N3CCC(C)CC3)cc12,AC50,[1],"39.8 µM [rising, single point]"
Cc1oc2ccc(O)c(CN3CCN(Cc4ccccc4)CC3)c2c1C(=O)Nc1cccc(Cl)c1C,AC50,[1],"15.8 µM [falling, partial curve]"
O=C(Nc1ccc(Oc2ccccc2)cc1)C1CCN(S(=O)(=O)c2ccccc2)CC1,AC50,[1],"7.94 µM [falling, full curve]"
CCOC(=O)c1ccc(NC(=O)c2ccc3c(c2)CCN3S(=O)(=O)c2ccc(Cl)cc2)cc1,AC50,[1],"10 µM [falling, partial curve]"
COc1ccc(CNC(=O)c2cc(Nc3ccc(OC)cc3OC)nc3ccccc23)cc1,AC50,[1],"2 µM [falling, full curve]"
Cc1ccc(C)c(CN2C(=O)c3ccccc3Sc3ccc(C(=O)NCCCOC(C)C)cc32)c1,AC50,[1],"31.6 µM [falling, single point]"
O=C(CSc1n[nH]c(-c2ccccc2Cl)n1)N1CCN(c2ccc(F)cc2)CC1,AC50,[1],"39.8 µM [falling, single point]"
O=c1nc2c(-c3ccccc3F)n[nH]n2c2ccccc12,AC50,[1],"0.0251 µM [falling, full curve]"
COC(=O)c1cc(Cl)ccc1NC(=O)Cn1c(C)cc(C)c(C#N)c1=O,AC50,[1],"20 µM [falling, partial curve]"
CC(C)NC(=O)c1nn(C)c2c1CS(=O)(=O)c1ccccc1-2,AC50,[1],"25.1 µM [falling, single point]"
CCOC(=O)N1CCC(N(CCOC)C(=O)Nc2ccc(Cl)c(Cl)c2)CC1,AC50,[1],"12.6 µM [falling, partial curve]"
CC(=O)Nc1ccc2nc(SCc3ccccc3)sc2c1,AC50,[1],"1.58 µM [rising, partial curve]"
CCOC(=O)Cc1cnc(NC(=O)Cn2nnc(-c3ccc(OCC)cc3)n2)s1,AC50,[1],"31.6 µM [falling, partial curve]"
Clc1ccc(CN2CCc3nc(Nc4ccc5c(c4)OCCO5)ncc3C2)cc1,AC50,[1],"31.6 µM [falling, partial curve]"
Cc1cc(C(=O)Nc2nnc(C(F)(F)F)s2)no1,AC50,[1],"10 µM [falling, partial curve]"
CCOc1ccccc1CN(CCc1ccc2c(c1)OCO2)Cc1cc(OC)c(OC)cc1OC,AC50,[1],"25.1 µM [falling, single point]"
Cc1ccccc1C(=O)NCc1ccc2c(c1)CCN2C(=O)c1ccccc1,AC50,[1],"25.1 µM [falling, partial curve]"
CCOC(=O)N1CCC(NC(=O)c2cnn(-c3cccc(C)c3)c2C2CCN(C(=O)OC(C)(C)C)CC2)CC1,AC50,[1],"25.1 µM [falling, partial curve]"
COc1ccc(CNC(=O)C(=O)NCC(c2cccs2)S(=O)(=O)c2ccc(C)cc2)cc1 (stereo not drawn),AC50,[1],"39.8 µM [falling, single point]"
O=C(c1ccc(F)cc1)N1c2ncnn2C2(CCCCC2)[C@@H]2CCCC[C@@H]21,AC50,[1],"12.6 µM [falling, partial curve]"
CCn1c(SCC(=O)Nc2cccc(Cl)c2)nnc1-c1nonc1NC(C)=O,AC50,[1],"39.8 µM [falling, single point]"
CCSC1=NC2(CCN(C(=O)NC3CCCCC3)CC2)N=C1c1ccc(C)c(C)c1,AC50,[1],"12.6 µM [falling, partial curve]"
Cc1noc(C)c1S(=O)(=O)NCCc1csc2nc(-c3ccc(F)cc3)nn12,AC50,[1],"25.1 µM [falling, partial curve]"
COc1ccc(OC)c(NC(=O)CCc2c(C)nc3c(-c4ccccc4)c(C)nn3c2C)c1,AC50,[1],"15.8 µM [falling, partial curve]"
CCCN(CCC)CCNC(=O)c1cc(Sc2ccc(Cl)cc2)nc2ccccc12,AC50,[1],"12.6 µM [falling, partial curve]"
Cc1ccc(S(=O)(=O)NCCCCCC(=O)Nc2nccs2)cc1,AC50,[1],"31.6 µM [falling, partial curve]"
Cc1cccc(CSCCNC(=O)CN(c2ccccc2)S(=O)(=O)N(C)C)c1,AC50,[1],"25.1 µM [falling, partial curve]"
CCN(c1ccccc1)S(=O)(=O)c1nnc(NC(=O)COc2ccccc2F)s1,AC50,[1],"10 µM [falling, partial curve]"
COc1ccc(-c2[nH]ncc2C(=O)NCc2ccccc2OC)cc1,AC50,[1],"20 µM [falling, single point]"
Cc1ccc(Nc2cc(-c3ccccc3)nc(C)n2)cc1,AC50,[1],"39.8 µM [falling, single point]"
COc1cc2c(c(OC)c1OC)-c1ccc(OC)c(=O)cc1[C@H](NC(C)=O)CC2,AC50,[2],"398 nM [rising, full curve] and 126 nM [rising, full curve] and 316 nM [rising, full curve]"
same,AC50,[3],"158 nM [rising, full curve] and 126 nM [rising, full curve] and 251 nM [rising, full curve]"
CC(=O)Nc1ccc(S(=O)(=O)Nc2ccc3c(c2)n(C)c(=O)n3C)c(C)c1,AC50,[2],"20 µM [rising, partial curve]"
same,AC50,[3],"1.58 µM [rising, partial curve]"
CCc1ccc(C2C(C#N)=C(N)SC(N)=C2C#N)cc1,AC50,[1],"15.8 µM [falling, partial curve]"
N#CCSc1n[nH]c2nc3c(c(=O)n12)C1(CCCC1)Cc1ccccc1-3,AC50,[1],"25.1 µM [falling, partial curve]"
CCc1ccc2oc(C(=O)Nc3nc(-c4ccccc4)ns3)c(C)c2c1,AC50,[1],"39.8 µM [falling, single point]"
O=C(Nc1nc(-c2nc3ccccc3s2)cs1)C1COc2ccccc2O1 (stereo not drawn),AC50,[1],"6.31 µM [falling, full curve]"
Cc1c(C(=O)N(C)C)sc2c1c(=O)n(-c1ccc(F)cc1)c(=O)n2CC(=O)N(C)c1ccccc1,AC50,[1],"0.0316 µM [rising, full curve, poor fit]"
Cc1ccc(C)c(NC(=O)Cn2c(=O)oc3cc(S(=O)(=O)NCc4ccccc4)ccc32)c1,AC50,[1],"25.1 µM [falling, single point]"
Cc1cc2oc(C(=O)Nc3ccc(S(=O)(=O)Nc4onc(C)c4C)cc3)cc(=O)c2cc1C,AC50,[1],"12.6 µM [falling, partial curve]"
CCOc1ccc(-n2c(SC(C)C(=O)OC)nc3c([nH]c4ccccc43)c2=O)cc1 (stereo not drawn),AC50,[1],"25.1 µM [rising, single point]"
Cc1ccccc1C(=O)Nc1sc2c(c1C(=O)N1CCC(C)CC1)CCCC2,AC50,[1],"12.6 µM [falling, single point]"
CCN(CCCNC(=O)c1cc2c(=O)[nH]c3ccc(C)cc3c2s1)Cc1ccccc1,AC50,[1],"31.6 µM [falling, partial curve]"
Cc1ccc(NC(=O)c2ccc(S(=O)(=O)N3CCCC3)cc2)cc1,AC50,[1],"15.8 µM [falling, partial curve]"
CC(C)CCNC(=O)c1cccc(-n2cnc3cccnc32)c1,AC50,[1],"39.8 µM [falling, single point]"
Cc1ccc(C(=O)COC(=O)c2cccc(NC(=O)c3ccc(Br)cc3)c2)cc1,AC50,[1],"7.94 µM [falling, partial curve]"
CCCn1nc(NC(=O)c2cccs2)c2cc3cc(OC)ccc3nc21,AC50,[1],"7.94 µM [falling, full curve]"
COc1cccc(CNC(=O)Cn2c(SCC(=O)Nc3ccc(F)cc3)nc3ccccc32)c1,AC50,[2],"0.0158 µM [rising, full curve, poor fit]"
same,AC50,[3],"31.6 µM [falling, single point]"
Cc1ccc2c(c1)-c1c(c(C(=O)NCCc3ccccc3)nn1C)CS2,AC50,[1],"12.6 µM [falling, partial curve]"
CCCN(C(=O)Cc1c(C(=O)O)[nH]c2ccc(Cl)cc12)c1ccc(OCC)cc1,AC50,[1],"12.6 µM [falling, partial curve]"
CCOCCCNC(=O)c1[nH]c2cc(OC)ccc2c1Sc1ccccc1,AC50,[1],"7.94 µM [falling, partial curve]"
Cc1cccc(N(CC(=O)Nc2cccc(Cl)c2C)S(C)(=O)=O)c1C,AC50,[1],"25.1 µM [falling, partial curve]"
COc1ccccc1C(=O)Nc1ccccc1SCc1cc(=O)c2ccccc2[nH]1,AC50,[1],"0.158 µM [falling, full curve]"
Cc1nnc(SCC(=O)NCc2ccc(N(C)C)cc2)c2nn(-c3ccccc3)c(C)c12,AC50,[1],"15.8 µM [falling, partial curve]"

# Reformatted: results already given
structure (smiles) | measurement | setting | value
CC(=O)Nc1ccc2nc(SCc3ccccc3)sc2c1 | AC50 | [1] | 1.58 µM [rising, partial curve]
CCOC(=O)Cc1cnc(NC(=O)Cn2nnc(-c3ccc(OCC)cc3)n2)s1 | AC50 | [1] | 31.6 µM [falling, partial curve]
Clc1ccc(CN2CCc3nc(Nc4ccc5c(c4)OCCO5)ncc3C2)cc1 | AC50 | [1] | 31.6 µM [falling, partial curve]
